{"sequences": {"note": "Protein sequences, listed by entry. Tags and fused reporters are not part of them. Lines headed by an entry give the natural chain unless they say otherwise; changes in a name come on top.", "UniProt Q12809": "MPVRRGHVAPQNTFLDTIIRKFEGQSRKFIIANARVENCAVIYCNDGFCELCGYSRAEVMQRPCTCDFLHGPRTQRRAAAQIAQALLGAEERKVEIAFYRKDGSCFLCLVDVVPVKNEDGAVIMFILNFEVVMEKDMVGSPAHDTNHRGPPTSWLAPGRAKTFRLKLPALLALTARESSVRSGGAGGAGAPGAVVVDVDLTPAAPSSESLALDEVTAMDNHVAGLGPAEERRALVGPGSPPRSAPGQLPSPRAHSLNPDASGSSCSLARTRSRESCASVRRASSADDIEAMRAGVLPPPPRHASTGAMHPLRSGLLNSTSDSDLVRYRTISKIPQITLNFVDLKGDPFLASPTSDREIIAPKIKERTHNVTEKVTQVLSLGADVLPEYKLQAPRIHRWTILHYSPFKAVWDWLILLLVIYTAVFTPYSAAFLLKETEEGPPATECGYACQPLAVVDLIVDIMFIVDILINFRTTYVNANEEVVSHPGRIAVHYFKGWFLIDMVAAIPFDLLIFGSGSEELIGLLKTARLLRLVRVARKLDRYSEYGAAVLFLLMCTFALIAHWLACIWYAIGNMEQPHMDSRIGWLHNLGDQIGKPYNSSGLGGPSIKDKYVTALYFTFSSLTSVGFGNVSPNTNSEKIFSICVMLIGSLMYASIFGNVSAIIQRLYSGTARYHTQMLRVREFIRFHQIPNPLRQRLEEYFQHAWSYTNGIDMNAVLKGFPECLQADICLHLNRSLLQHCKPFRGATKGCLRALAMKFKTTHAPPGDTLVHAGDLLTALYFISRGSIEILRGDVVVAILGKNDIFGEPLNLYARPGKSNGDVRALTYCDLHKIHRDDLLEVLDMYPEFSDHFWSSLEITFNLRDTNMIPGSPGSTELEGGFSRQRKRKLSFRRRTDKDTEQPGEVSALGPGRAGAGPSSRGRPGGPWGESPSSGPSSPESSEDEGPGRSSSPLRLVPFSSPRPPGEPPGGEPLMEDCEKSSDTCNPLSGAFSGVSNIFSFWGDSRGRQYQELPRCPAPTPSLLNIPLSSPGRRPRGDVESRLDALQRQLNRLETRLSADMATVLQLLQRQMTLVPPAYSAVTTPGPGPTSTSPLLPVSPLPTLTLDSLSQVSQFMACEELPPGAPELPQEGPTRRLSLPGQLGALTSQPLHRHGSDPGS"}, "source": "PubChem BioAssay AID1511", "about": "(Johns Hopkins Ion Channel Center, 2009)", "note": "This is a selection; strong and weak results do not stand in their true shares. Active and inactive are the calls of the source.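 The calls were made as follows: active = activation above the mean of controls blocked by dofetilide plus 5 SD; inactive = the rest.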"}
{"biological_target": "Voltage-gated inwardly rectifying potassium channel KCNH2 (Homo sapiens) (UniProt Q12809)", "assay": "compounds relieving dofetilide block of hERG – cell-based, CHO-hERG, FluxOR thallium flux, dofetilide IC70, primary screen (AID 1511);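 also: thallium influx through hERG after potassium depolarization seen as dye fluorescence rise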", "details": "dofetilide IC70 present, at 10 µM, hits give high values"}
{"smiles": "COC(=O)c1ccc(CNC(=O)CSc2nc3sc(C)c(C)c3c(=O)n2C)o1", "activation (rescue from dofetilide block), less the hit threshold": "active: 5.08%"}
